From article PMC10045306
These are yes or no findings as the source states them, for the method shown. Binding seen in cells or lysates may run through a third protein.

The chains behind the UniProt entries cited, without tags or fusion partners.
UniProt P37238: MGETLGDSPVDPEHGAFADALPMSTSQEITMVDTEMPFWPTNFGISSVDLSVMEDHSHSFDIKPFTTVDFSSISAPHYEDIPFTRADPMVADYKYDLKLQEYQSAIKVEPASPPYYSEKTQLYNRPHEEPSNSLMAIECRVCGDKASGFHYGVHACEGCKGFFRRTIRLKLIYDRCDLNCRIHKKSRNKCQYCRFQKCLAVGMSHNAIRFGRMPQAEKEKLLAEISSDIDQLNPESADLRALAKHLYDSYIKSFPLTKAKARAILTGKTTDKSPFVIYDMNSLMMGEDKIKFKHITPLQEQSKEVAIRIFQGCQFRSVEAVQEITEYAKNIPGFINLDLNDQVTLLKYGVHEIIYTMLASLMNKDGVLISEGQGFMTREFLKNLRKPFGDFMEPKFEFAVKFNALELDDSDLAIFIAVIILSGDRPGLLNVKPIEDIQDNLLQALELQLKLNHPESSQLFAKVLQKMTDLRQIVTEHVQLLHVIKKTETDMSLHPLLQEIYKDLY
UniProt P28184: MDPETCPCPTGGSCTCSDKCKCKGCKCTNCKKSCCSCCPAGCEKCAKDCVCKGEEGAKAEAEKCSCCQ

Molecular target: peroxisome proliferator-activated receptor γ (UniProt P37238)
Test: co-IP; HEK 293T cells transfected with HA-MT3, Myc-PPARγ or empty Myc vector; lysis buffer with 1% NP-40, 25 mM HEPES pH 7.5, 150 mM NaCl, 0.25% sodium deoxycholate; lysates with antibodies at 4 °C overnight, protein A-Sepharose beads 2 h at 4 °C, three washes with lysis buffer, immunoblotting

binding: no binding
Substance: Metallothionein 3 (from UniProt P28184 1-68)
